Experiment [1] deals with T1, HA-tagged human TRIM28-K304Q (human) (UniProt Q13263).
T1 sequence: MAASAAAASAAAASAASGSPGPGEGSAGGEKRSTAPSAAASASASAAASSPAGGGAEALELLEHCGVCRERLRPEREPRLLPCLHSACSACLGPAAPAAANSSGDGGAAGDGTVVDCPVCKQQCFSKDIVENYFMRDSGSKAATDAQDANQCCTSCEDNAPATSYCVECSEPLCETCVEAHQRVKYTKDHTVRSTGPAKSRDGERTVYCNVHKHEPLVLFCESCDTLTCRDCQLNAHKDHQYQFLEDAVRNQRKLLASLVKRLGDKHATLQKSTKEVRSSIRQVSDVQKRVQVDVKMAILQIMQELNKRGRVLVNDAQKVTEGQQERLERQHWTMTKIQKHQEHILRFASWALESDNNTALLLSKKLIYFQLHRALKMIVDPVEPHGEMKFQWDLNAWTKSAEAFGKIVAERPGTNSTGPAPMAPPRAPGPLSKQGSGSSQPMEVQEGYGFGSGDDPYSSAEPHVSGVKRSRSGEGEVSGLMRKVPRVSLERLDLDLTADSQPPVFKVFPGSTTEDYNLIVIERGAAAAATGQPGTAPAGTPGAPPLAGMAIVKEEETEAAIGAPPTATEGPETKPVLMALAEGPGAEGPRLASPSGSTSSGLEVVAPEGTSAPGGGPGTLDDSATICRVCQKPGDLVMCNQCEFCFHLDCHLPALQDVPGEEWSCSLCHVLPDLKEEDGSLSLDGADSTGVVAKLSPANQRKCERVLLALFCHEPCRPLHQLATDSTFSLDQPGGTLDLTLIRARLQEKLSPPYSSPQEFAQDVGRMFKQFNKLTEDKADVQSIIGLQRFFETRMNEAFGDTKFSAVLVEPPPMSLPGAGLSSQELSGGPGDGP
The experiment can be described thus: co-IP; HA-tagged human TRIM28 (WT, K304Q, K304R) and Gal4^DBD-KRAB in K562 cells; anti-HA agarose; whole-cell extract buffer with 300 mM NaCl, 0.1% Triton X-100, 4 °C.

Experiment [2] deals with T2, FLAG-tagged mouse Trim28-K290Q (mouse) (UniProt Q62318).
T2 sequence: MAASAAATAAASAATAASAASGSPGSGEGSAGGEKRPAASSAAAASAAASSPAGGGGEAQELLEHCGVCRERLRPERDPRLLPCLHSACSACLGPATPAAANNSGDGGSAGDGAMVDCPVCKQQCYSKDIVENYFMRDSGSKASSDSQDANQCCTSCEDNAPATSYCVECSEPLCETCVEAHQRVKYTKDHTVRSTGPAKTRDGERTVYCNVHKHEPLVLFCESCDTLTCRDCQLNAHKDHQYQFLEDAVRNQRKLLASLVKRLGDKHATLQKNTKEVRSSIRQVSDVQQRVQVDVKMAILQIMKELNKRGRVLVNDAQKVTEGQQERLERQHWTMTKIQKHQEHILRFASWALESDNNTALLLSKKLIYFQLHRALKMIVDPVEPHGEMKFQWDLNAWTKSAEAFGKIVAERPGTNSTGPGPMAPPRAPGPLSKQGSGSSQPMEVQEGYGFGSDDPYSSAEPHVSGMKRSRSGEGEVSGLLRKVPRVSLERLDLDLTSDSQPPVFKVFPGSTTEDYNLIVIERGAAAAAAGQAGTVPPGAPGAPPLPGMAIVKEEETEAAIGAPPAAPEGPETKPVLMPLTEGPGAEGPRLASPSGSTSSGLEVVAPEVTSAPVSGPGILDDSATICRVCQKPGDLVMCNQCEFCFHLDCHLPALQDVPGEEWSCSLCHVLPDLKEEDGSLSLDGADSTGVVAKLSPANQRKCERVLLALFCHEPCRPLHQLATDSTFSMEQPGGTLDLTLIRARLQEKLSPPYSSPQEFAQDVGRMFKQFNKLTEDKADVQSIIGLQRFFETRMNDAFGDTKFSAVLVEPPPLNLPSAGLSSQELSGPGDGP
The experiment can be described thus: co-IP; FLAG-tagged mouse Trim28 (WT or mutants) and Gal4^DBD-KRAB in TRIM28-knockout K562 cells; IP with anti-FLAG, Western blot with anti-FLAG and anti-Gal4; whole-cell extract buffer with 300 mM NaCl, 0.1% Triton X-100, 4 °C.

The target of experiment [3] is T3, FLAG-tagged mouse Trim28-K290R (mouse) (UniProt Q62318).
T3 sequence: T2 sequence with Q290R
The experiment is described as above.

Where a chain is given by its changes, count along the chain named. No constants are given. Whether binding was seen depends on the method and setting. Binding seen in cells or lysates may run through a third protein. Binding calls can cover weak binding; strength is not graded here. Where a sequence is shown, tags or fusion partners need not be part of it.

“Gal4 DNA-binding domain (Gal4^DBD)-KRAB (domain or fragment)”: the values for the binding entry in experiment [1], in experiment [2] and in experiment [3] were “binds weakly”, “binds” and “binds”, respectively.

These data come from publication PMC10298087.
